Here are results for one molecule from patent US10647700B2, “EZH2 inhibitor and use thereof” (TARAPEUTICS SCIENCE INC., priority 2017, dated 2020).

SMILES strings stand for the structures.

For the assay, the system named is H3K27m3 methylation in Pfeiffer cells. The assay is described as follows: Western Blot of H3K27m3 methylation in Pfeiffer cells. The class given is cell-based. As to conditions: Homo sapiens, 72 hours treatment, H3K27m3 methylation by Western Blot. On the procedure: Meanwhile, the inventors further conducted Western Blot with Pfeiffer cells (purchased from ATCC, USA) for verification. […] Effect of compounds on H3K27m3 methylation in cells was assessed.

Take `CCN(c1cc(-c2ccc(CN3CCOCC3)cc2)cc(C(=O)NCc2c(C)cc(C)[nH]c2=O)c1C)C1CCOCC1` [EPZ6438, reference compound]: the IC50 – broadly, the concentration needed to halve the response being measured – was 0.037 µM.
